These results are taken from PMC5458101.

Amino acid sequences for entries named in this document (tags omitted).
UniProt Q2PQA9: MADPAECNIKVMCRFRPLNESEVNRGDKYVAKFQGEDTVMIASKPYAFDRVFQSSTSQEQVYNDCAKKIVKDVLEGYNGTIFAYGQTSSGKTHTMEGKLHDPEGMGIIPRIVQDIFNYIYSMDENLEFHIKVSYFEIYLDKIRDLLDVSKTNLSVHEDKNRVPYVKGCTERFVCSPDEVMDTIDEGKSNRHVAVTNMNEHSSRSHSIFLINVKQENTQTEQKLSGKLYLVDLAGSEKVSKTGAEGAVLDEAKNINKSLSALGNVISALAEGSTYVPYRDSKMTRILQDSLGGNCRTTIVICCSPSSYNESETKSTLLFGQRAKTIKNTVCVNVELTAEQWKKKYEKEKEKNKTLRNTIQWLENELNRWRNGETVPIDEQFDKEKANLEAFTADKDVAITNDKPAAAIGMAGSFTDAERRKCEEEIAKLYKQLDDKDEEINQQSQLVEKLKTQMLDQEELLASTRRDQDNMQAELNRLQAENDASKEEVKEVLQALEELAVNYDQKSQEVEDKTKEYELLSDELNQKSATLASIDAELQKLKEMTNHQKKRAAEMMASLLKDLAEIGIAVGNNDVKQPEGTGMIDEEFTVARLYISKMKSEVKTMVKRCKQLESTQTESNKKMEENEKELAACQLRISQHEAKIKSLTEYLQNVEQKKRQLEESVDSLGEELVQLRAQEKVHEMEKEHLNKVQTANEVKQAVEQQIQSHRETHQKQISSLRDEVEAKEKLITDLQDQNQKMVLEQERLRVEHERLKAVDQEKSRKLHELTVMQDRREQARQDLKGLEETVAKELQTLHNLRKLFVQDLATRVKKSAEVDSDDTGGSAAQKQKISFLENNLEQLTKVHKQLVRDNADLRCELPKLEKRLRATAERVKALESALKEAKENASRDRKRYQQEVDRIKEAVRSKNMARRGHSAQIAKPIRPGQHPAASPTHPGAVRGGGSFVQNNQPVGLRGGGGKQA
UniProt P11142: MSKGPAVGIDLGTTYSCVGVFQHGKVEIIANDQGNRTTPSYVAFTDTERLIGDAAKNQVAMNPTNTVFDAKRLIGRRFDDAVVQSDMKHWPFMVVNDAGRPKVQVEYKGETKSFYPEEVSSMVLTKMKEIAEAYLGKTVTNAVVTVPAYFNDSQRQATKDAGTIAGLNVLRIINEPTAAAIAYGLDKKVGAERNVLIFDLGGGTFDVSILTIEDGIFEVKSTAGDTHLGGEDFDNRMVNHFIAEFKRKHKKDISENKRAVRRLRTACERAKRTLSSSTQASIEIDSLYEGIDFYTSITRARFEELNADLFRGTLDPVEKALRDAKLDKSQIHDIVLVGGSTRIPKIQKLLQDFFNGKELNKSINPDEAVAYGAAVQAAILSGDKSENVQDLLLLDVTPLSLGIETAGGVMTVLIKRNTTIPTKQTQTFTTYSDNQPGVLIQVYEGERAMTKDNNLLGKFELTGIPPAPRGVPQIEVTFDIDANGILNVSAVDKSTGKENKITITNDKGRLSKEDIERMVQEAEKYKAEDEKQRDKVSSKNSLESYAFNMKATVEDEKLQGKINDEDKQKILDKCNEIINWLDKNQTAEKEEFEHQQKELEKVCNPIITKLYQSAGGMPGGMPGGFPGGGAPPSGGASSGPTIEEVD
UniProt Q92598: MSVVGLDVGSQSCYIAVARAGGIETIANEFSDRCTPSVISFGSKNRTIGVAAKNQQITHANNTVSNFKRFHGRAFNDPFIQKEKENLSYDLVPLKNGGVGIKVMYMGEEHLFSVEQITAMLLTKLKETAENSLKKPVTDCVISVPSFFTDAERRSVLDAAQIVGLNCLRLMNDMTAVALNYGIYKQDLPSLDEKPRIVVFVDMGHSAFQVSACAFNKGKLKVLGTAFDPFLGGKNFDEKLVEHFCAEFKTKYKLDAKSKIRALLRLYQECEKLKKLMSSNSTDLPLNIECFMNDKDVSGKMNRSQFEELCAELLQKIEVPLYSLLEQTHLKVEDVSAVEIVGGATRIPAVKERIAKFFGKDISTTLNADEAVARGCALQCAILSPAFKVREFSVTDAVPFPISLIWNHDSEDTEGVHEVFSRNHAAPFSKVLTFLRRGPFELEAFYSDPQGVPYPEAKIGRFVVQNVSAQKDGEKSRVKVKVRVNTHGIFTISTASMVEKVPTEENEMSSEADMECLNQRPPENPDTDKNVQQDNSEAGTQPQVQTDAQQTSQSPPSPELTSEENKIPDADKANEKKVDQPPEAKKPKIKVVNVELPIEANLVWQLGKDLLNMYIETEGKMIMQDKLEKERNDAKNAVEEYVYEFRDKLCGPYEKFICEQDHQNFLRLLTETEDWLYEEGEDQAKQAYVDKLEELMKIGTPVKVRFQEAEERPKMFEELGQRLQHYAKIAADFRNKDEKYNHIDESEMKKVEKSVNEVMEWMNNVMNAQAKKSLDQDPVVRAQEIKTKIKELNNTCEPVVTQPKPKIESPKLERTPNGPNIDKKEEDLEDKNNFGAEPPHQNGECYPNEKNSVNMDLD

Assay [1] has as its target T1, FLAG-tagged B14 wild type (UniProt Q8TBM8).
T1 sequence: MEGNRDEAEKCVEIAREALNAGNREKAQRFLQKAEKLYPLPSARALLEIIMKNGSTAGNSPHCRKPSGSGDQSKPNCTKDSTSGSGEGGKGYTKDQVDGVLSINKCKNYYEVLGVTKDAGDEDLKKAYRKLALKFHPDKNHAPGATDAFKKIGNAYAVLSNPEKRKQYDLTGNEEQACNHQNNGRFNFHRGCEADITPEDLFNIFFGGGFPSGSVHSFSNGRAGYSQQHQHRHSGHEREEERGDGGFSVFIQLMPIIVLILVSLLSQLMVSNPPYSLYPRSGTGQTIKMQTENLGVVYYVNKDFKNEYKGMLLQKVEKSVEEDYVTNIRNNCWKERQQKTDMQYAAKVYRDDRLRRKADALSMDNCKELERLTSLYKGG
Nature of the assay: co-IP.

In assay [2] the target is T2, FLAG-tagged B14 H136Q (J-domain mutant) (UniProt Q8TBM8).
T2 sequence: T1 sequence with H136Q
Nature of the assay: co-IP; 293T cells expressing ^FLAGB14 WT or ^FLAGB14 H136Q, transiently transfected with ^mChKIF5 WT; DSP, lysis in 1% Triton X-100 TSEP buffer; anti-FLAG agarose beads; immunoblot. For orientation: Immunoblotting shows a protein as a band on a membrane.

Assay [3] addresses T1, FLAG-tagged B14 wild type. The description is as above.
The target of assay [4] is T3, 3x-FLAG tagged B14 (DNAJ homologue subfamily B member 14) (UniProt Q8TBM8).
T3 sequence: T1 sequence
The experiment in a line: co-IP; Flp-In 293T-REx cells stably expressing B14^3xFLAG, transiently transfected with ^mChKIF5 WT; cells treated with the cross-linker DSP (2 mM), lysed in 1% Triton X-100 TSEP buffer; anti-FLAG agarose beads, 2 h, 4 °C; immunoblot; HEK 293T cells without B14^3xFLAG as control.

Numbering of substitutions follows the chain as printed. These are yes or no findings as the source states them, for the method shown. Binding seen in cells or lysates may run through a third protein. Some results given as binding are weak or reduced against the parent protein; the word gives no strength. Sequences can lack the tags named with a protein.

As to “Full-length WT KIF5B tagged with mCherry at its N terminus (from UniProt Q2PQA9 1-963)”, the binding result in assay [1], in assay [2], in assay [3] and in assay [4] was “binds” in each case.
For the substance “heat shock cognate protein 70 (endogenous, 293T) (from UniProt P11142 1-646)”, the binding result in assay [2] is given as “binds weakly”; in assay [3] it was “binds”.
On the same counts, the results for “heat shock protein 105 (endogenous, 293T) (from UniProt Q92598 1-858)” are “binds weakly” and “binds”.
